# Test results from the supplement of paper PMC6411743.
# By UniProt entry, the sequences of proteins in these tests, tags left out. Where a name states a change or a piece, a line headed by the entry shows the natural chain unless it says otherwise.
# UniProt P35227: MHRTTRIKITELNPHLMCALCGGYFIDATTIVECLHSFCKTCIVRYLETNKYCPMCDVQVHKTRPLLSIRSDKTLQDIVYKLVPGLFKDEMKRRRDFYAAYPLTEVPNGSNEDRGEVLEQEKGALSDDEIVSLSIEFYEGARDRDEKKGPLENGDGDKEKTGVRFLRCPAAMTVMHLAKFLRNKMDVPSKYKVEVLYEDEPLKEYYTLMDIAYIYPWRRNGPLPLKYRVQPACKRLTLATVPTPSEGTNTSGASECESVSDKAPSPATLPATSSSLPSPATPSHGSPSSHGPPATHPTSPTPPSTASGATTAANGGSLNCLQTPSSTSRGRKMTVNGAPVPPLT
# UniProt Q9Y3E1: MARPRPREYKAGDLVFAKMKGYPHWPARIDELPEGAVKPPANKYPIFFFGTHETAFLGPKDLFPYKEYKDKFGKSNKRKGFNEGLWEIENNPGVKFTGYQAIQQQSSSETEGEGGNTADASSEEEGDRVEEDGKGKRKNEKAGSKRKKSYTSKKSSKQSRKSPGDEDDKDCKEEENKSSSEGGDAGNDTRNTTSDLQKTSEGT
# UniProt Q00341: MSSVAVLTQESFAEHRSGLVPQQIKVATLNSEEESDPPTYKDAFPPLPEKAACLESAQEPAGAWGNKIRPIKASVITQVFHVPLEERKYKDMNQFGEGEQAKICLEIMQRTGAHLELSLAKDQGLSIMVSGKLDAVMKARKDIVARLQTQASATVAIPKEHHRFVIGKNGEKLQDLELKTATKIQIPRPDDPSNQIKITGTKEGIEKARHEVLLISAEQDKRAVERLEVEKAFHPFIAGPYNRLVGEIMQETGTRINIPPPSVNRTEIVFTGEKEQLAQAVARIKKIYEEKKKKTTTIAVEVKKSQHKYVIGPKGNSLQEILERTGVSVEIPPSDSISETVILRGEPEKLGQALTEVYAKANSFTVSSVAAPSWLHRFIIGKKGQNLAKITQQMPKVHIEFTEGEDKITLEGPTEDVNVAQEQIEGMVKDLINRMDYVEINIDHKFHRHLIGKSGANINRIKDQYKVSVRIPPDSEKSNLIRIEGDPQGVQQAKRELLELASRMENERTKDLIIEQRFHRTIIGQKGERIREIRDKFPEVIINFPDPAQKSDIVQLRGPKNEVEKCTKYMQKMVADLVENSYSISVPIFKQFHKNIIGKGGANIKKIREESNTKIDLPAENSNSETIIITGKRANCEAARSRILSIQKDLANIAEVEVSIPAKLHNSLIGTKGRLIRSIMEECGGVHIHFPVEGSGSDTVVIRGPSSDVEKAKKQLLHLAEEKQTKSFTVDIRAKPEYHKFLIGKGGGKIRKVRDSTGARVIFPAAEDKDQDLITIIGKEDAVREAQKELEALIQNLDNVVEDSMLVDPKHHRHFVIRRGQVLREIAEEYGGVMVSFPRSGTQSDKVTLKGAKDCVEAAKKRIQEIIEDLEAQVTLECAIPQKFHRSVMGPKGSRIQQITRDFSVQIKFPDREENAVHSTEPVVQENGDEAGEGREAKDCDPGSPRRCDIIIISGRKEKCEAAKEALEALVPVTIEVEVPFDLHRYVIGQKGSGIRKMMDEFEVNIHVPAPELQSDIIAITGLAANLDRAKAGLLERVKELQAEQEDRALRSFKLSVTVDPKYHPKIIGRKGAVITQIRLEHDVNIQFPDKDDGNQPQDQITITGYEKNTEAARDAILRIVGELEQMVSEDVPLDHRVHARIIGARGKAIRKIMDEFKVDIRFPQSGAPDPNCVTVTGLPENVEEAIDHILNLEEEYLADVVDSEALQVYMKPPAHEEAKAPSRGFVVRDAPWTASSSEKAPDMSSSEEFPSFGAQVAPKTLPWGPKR
# UniProt Q9BXJ8: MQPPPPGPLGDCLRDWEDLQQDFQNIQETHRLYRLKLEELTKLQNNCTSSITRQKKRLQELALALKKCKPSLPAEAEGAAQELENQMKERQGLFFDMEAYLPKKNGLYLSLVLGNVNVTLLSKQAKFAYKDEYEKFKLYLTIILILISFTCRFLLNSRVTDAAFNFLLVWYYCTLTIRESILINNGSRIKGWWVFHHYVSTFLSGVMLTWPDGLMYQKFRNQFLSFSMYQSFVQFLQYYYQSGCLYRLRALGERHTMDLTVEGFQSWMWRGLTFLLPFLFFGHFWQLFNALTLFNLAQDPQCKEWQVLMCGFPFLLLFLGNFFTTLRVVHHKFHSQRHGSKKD
# UniProt Q9BSV6: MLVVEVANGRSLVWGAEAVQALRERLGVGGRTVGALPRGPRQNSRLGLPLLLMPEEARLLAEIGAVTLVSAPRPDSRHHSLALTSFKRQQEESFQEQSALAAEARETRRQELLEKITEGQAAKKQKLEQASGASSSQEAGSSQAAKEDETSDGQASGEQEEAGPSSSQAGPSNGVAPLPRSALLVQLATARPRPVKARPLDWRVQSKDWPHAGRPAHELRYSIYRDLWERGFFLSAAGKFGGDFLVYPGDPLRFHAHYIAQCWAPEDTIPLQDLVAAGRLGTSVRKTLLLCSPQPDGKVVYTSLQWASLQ
# UniProt P0C1Z6, whole entry: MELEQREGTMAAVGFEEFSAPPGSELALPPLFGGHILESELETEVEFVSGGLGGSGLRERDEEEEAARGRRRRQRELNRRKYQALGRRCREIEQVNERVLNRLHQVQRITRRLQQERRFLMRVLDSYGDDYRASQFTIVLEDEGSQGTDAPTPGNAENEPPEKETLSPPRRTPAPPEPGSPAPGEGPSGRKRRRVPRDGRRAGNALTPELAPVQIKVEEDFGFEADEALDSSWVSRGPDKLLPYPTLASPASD
# UniProt O75503: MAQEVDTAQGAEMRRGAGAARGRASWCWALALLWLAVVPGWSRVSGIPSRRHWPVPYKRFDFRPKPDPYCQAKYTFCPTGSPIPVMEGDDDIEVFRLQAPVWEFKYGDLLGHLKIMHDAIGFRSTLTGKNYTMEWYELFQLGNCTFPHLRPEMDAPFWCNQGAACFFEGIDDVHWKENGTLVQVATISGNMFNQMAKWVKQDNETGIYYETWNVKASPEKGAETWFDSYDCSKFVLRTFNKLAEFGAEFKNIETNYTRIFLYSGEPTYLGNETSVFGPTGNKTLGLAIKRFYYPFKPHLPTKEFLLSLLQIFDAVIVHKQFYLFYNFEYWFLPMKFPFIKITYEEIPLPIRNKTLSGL
# UniProt P25787: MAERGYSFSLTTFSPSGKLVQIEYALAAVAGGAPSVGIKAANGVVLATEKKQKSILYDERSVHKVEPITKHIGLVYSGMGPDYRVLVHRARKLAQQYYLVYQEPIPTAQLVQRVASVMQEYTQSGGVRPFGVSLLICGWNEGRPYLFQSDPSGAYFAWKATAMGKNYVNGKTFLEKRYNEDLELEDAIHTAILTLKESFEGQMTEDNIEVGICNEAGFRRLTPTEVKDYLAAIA
# UniProt Q14241: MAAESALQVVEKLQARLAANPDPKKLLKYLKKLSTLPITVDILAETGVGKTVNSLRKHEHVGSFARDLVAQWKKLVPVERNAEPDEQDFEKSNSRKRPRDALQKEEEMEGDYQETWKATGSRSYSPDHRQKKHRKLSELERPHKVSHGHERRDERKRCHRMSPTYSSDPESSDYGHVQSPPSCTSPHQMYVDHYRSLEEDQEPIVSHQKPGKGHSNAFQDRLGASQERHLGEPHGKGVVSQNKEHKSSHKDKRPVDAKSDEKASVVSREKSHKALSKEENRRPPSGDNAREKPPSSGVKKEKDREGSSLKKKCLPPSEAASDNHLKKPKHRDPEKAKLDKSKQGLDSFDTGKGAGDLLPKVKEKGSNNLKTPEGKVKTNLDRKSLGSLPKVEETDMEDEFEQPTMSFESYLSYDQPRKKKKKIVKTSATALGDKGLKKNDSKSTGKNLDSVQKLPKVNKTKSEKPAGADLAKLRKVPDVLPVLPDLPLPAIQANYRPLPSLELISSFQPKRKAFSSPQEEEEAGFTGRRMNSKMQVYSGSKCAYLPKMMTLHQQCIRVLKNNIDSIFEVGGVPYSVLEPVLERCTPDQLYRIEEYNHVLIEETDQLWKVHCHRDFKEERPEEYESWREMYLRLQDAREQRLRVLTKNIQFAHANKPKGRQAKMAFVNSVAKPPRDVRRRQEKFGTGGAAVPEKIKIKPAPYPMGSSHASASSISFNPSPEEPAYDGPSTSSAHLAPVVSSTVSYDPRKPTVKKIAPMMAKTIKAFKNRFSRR
# UniProt Q16670: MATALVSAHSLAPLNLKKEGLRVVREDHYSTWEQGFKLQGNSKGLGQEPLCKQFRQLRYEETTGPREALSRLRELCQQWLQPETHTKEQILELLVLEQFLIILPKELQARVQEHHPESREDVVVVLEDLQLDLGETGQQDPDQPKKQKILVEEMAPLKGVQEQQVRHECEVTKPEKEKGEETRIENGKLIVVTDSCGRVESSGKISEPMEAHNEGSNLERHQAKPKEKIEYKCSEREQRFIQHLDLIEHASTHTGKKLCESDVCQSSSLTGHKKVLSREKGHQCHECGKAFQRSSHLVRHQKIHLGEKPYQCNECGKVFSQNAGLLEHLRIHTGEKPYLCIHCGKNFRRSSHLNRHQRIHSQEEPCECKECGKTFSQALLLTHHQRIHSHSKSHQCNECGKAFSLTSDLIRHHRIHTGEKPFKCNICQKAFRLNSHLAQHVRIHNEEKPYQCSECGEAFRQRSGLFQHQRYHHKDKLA
# UniProt Q9UMR5: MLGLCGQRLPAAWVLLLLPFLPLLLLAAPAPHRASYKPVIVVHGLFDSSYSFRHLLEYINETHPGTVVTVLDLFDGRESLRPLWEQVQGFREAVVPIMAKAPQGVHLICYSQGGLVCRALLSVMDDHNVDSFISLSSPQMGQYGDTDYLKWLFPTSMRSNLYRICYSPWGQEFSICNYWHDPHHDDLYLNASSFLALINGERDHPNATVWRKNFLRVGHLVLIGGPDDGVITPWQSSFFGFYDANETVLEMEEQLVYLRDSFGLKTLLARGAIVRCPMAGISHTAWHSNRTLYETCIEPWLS
# UniProt P46379: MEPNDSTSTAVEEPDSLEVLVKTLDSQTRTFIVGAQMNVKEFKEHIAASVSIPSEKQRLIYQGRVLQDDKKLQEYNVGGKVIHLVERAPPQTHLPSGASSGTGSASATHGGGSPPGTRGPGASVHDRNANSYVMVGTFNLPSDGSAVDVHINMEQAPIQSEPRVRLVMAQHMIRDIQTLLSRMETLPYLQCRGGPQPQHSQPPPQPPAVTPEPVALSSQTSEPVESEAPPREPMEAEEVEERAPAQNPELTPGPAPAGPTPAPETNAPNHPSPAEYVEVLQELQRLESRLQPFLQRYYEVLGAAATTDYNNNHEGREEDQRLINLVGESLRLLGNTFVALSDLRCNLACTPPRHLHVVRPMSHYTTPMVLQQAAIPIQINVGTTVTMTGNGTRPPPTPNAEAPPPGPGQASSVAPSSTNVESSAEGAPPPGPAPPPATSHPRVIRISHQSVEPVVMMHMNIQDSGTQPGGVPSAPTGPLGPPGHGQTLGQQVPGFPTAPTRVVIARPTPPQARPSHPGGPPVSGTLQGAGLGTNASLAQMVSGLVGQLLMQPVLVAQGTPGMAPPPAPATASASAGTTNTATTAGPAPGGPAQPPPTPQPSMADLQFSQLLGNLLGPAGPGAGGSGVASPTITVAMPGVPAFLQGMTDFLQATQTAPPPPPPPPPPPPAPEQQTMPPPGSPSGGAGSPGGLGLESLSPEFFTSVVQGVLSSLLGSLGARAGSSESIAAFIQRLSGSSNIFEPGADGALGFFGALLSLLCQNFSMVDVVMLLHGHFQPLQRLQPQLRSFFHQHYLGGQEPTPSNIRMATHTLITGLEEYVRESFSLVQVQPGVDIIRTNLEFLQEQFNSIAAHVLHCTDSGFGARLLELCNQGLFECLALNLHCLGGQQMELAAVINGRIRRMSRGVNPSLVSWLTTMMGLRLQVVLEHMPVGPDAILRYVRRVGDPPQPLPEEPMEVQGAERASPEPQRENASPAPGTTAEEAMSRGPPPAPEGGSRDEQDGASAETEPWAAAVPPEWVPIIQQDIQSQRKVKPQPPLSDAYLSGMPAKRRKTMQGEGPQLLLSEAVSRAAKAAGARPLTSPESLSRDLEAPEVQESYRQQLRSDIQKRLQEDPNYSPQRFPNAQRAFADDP
# ± gives the standard deviation of the averaged measurements. The list shows a part of the results, in another mix than the full data.
# Experiments:
# Test in all cases: NP40-soluble protein abundance relative to vehicle (solubility fold change) (ratio); higher = more soluble protein in presence of ATP
# A0A024R1V6|P35227 = A0A024R1V6|P35227 (UniProt P35227)
# In short: (§1)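 Crude Jurkat lysate, prepared by Dounce homogenisation, was exposed to eight concentrations from 0.1 to 10 mM for 10 min at room temperature and then 3 min at 37 °C. Solubilisation used 0.8% NP40 with benzonase for 60 min at 4 °C, followed by ultracentrifugation and TMT labelling of the supernatant for LC-MS/MS. After vsn normalisation of intensities, each value is the fold change against the detergent-processed vehicle within each replicate, across three independent experiments.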
# A0A024R216|Q9Y3E1 = A0A024R216|Q9Y3E1 (UniProt Q9Y3E1)
# In short: as §1
# A0A024R4E5 = A0A024R4E5 (UniProt Q00341)
# In short: as §1
# [1] = molecular target: A0A024R4K9|A0A087WZA9|A0A087X266|Q9BXJ8 and related entries (UniProt Q9BXJ8)
# In short: as §1
# A0A024R4M0|P46781 = A0A024R4M0|P46781 (UniProt P46781)
# In short: as §1
# [2] = molecular target: A0A024R4N9|A0A0G2JNK5|A9C4B9 and related entries (UniProt Q9BSV6)
# In short: as §1
# [3] = molecular target: A0A024R4Q5|G5E9B5 and related entries (UniProt P0C1Z6)
# In short: as §1
# A0A024R644|O75503 = A0A024R644|O75503 (UniProt O75503)
# In short: as §1
# A0A024RA52|P25787 = A0A024RA52|P25787 (UniProt P25787)
# In short: as §1
# A0A024RAC6 = A0A024RAC6 (UniProt Q14241)
# In short: as §1
# [4] = molecular target: A0A024RCN4|A0A087X2F1|Q16670 and related entries (UniProt Q16670)
# In short: as §1
# [5] = molecular target: A0A024RCQ8|A0A0G2JH76|A0A140T8X7|Q9UMR5 and related entries (UniProt Q9UMR5)
# In short: as §1
# [6] = molecular target: A0A024RCR6|A0A0G2JK23|P46379 and related entries (UniProt P46379)
# In short: as §1
# A0A067XG54 = molecular target: T1, A0A067XG54 (UniProt Q8NB49)
# T1 sequence (whole entry): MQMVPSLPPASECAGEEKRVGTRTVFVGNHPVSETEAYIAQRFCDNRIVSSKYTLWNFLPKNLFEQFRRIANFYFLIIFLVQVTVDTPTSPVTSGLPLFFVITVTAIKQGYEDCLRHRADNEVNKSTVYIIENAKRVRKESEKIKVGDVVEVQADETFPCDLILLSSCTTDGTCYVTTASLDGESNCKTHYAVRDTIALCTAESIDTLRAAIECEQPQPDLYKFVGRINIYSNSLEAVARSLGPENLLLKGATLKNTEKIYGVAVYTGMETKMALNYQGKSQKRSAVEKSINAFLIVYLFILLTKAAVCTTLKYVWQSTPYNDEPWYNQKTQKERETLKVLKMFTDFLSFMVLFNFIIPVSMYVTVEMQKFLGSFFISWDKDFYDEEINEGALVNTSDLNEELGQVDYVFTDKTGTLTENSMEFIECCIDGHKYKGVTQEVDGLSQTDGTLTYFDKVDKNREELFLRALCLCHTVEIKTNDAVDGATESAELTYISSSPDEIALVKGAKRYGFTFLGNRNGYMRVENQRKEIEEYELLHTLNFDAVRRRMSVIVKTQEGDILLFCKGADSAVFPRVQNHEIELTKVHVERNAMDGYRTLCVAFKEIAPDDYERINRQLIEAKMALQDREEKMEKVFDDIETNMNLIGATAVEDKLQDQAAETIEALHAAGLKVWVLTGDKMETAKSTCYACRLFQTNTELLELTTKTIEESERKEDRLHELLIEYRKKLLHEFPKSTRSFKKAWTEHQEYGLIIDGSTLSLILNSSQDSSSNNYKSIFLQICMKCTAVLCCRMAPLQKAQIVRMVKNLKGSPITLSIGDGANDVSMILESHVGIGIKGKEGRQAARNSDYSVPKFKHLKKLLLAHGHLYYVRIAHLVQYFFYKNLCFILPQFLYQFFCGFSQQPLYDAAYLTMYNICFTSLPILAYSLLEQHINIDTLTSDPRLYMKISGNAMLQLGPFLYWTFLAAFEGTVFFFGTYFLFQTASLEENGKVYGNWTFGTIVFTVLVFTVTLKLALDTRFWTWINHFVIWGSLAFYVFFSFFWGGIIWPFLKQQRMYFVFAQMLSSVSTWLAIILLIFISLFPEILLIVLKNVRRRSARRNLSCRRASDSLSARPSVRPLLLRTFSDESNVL
# In short: as §1
compound,measurement,setting,value
Nc1ncnc2c1ncn2[C@@H]1O[C@H](COP(=O)(O)OP(=O)(O)OP(=O)(O)O)[C@@H](O)[C@H]1O [adenosine triphosphate],NP40-soluble protein abundance,A0A024R1V6|P35227; concentration: 1mM,1.06 ± 0.048
same,NP40-soluble protein abundance,A0A024R1V6|P35227; concentration: 2mM,1.11 ± 0.057
same,NP40-soluble protein abundance,A0A024R1V6|P35227; concentration: 4mM,1.21 ± 0.05
same,NP40-soluble protein abundance,A0A024R1V6|P35227; concentration: 6mM,1.16 ± 0.068
same,NP40-soluble protein abundance,A0A024R1V6|P35227; concentration: 8mM,1.32 ± 0.048
same,NP40-soluble protein abundance,A0A024R1V6|P35227; concentration: 10mM,1.28 ± 0.054
same,NP40-soluble protein abundance,A0A024R216|Q9Y3E1; concentration: 1mM,1.03 ± 0.048
same,NP40-soluble protein abundance,A0A024R216|Q9Y3E1; concentration: 2mM,1.06 ± 0.031
same,NP40-soluble protein abundance,A0A024R216|Q9Y3E1; concentration: 4mM,1.01 ± 0.028
same,NP40-soluble protein abundance,A0A024R216|Q9Y3E1; concentration: 6mM,1.109 ± 0.0039
same,NP40-soluble protein abundance,A0A024R216|Q9Y3E1; concentration: 8mM,1 ± 0.038
same,NP40-soluble protein abundance,A0A024R216|Q9Y3E1; concentration: 10mM,1.03 ± 0.053
same,NP40-soluble protein abundance,A0A024R4E5; concentration: 1mM,0.893 ± 0.021
same,NP40-soluble protein abundance,A0A024R4E5; concentration: 2mM,0.891 ± 0.02
same,NP40-soluble protein abundance,A0A024R4E5; concentration: 4mM,0.8973 ± 0.0079
same,NP40-soluble protein abundance,A0A024R4E5; concentration: 6mM,0.925 ± 0.036
same,NP40-soluble protein abundance,A0A024R4E5; concentration: 8mM,0.971 ± 0.026
same,NP40-soluble protein abundance,A0A024R4E5; concentration: 10mM,1.02 ± 0.033
same,NP40-soluble protein abundance,[1]; concentration: 1mM,0.972 ± 0.082
same,NP40-soluble protein abundance,[1]; concentration: 2mM,1.09 ± 0.02
same,NP40-soluble protein abundance,[1]; concentration: 4mM,1.03 ± 0.13
same,NP40-soluble protein abundance,[1]; concentration: 6mM,1.07 ± 0.076
same,NP40-soluble protein abundance,[1]; concentration: 8mM,1.08 ± 0.051
same,NP40-soluble protein abundance,[1]; concentration: 10mM,1.06 ± 0.17
same,NP40-soluble protein abundance,A0A024R4M0|P46781; concentration: 1mM,0.875 ± 0.1
same,NP40-soluble protein abundance,A0A024R4M0|P46781; concentration: 2mM,0.799 ± 0.063
same,NP40-soluble protein abundance,A0A024R4M0|P46781; concentration: 4mM,0.774 ± 0.021
same,NP40-soluble protein abundance,A0A024R4M0|P46781; concentration: 6mM,0.672 ± 0.052
same,NP40-soluble protein abundance,A0A024R4M0|P46781; concentration: 8mM,0.675 ± 0.018
same,NP40-soluble protein abundance,A0A024R4M0|P46781; concentration: 10mM,0.708 ± 0.069
same,NP40-soluble protein abundance,[2]; concentration: 1mM,0.984 ± 0.057
same,NP40-soluble protein abundance,[2]; concentration: 2mM,1 ± 0.039
same,NP40-soluble protein abundance,[2]; concentration: 4mM,0.968 ± 0.02
same,NP40-soluble protein abundance,[2]; concentration: 6mM,0.939 ± 0.065
same,NP40-soluble protein abundance,[2]; concentration: 8mM,0.952 ± 0.092
same,NP40-soluble protein abundance,[2]; concentration: 10mM,1.01 ± 0.044
same,NP40-soluble protein abundance,[3]; concentration: 1mM,1.18 ± 0.077
same,NP40-soluble protein abundance,[3]; concentration: 2mM,1.07 ± 0.022
same,NP40-soluble protein abundance,[3]; concentration: 4mM,1.13 ± 0.025
same,NP40-soluble protein abundance,[3]; concentration: 6mM,1.14 ± 0.089
same,NP40-soluble protein abundance,[3]; concentration: 8mM,1.16 ± 0.078
same,NP40-soluble protein abundance,[3]; concentration: 10mM,1.237 ± 0.0093
same,NP40-soluble protein abundance,A0A024R644|O75503; concentration: 1mM,0.928 ± 0.041
same,NP40-soluble protein abundance,A0A024R644|O75503; concentration: 2mM,0.979 ± 0.027
same,NP40-soluble protein abundance,A0A024R644|O75503; concentration: 4mM,0.945 ± 0.024
same,NP40-soluble protein abundance,A0A024R644|O75503; concentration: 6mM,0.933 ± 0.049
same,NP40-soluble protein abundance,A0A024R644|O75503; concentration: 8mM,0.936 ± 0.03
same,NP40-soluble protein abundance,A0A024R644|O75503; concentration: 10mM,0.964 ± 0.033
same,NP40-soluble protein abundance,A0A024RA52|P25787; concentration: 1mM,0.921 ± 0.029
same,NP40-soluble protein abundance,A0A024RA52|P25787; concentration: 2mM,0.879 ± 0.028
same,NP40-soluble protein abundance,A0A024RA52|P25787; concentration: 4mM,0.843 ± 0.033
same,NP40-soluble protein abundance,A0A024RA52|P25787; concentration: 6mM,0.881 ± 0.098
same,NP40-soluble protein abundance,A0A024RA52|P25787; concentration: 8mM,0.878 ± 0.08
same,NP40-soluble protein abundance,A0A024RA52|P25787; concentration: 10mM,0.862 ± 0.051
same,NP40-soluble protein abundance,A0A024RAC6; concentration: 1mM,0.961 ± 0.072
same,NP40-soluble protein abundance,A0A024RAC6; concentration: 2mM,0.997 ± 0.044
same,NP40-soluble protein abundance,A0A024RAC6; concentration: 4mM,1.02 ± 0.06
same,NP40-soluble protein abundance,A0A024RAC6; concentration: 6mM,1.09 ± 0.041
same,NP40-soluble protein abundance,A0A024RAC6; concentration: 8mM,1.05 ± 0.022
same,NP40-soluble protein abundance,A0A024RAC6; concentration: 10mM,1.06 ± 0.048
same,NP40-soluble protein abundance,[4]; concentration: 1mM,1.09 ± 0.033
same,NP40-soluble protein abundance,[4]; concentration: 2mM,1.12 ± 0.026
same,NP40-soluble protein abundance,[4]; concentration: 4mM,1.12 ± 0.066
same,NP40-soluble protein abundance,[4]; concentration: 6mM,1.14 ± 0.051
same,NP40-soluble protein abundance,[4]; concentration: 8mM,1.23 ± 0.025
same,NP40-soluble protein abundance,[4]; concentration: 10mM,1.21 ± 0.018
same,NP40-soluble protein abundance,[5]; concentration: 1mM,0.923 ± 0.055
same,NP40-soluble protein abundance,[5]; concentration: 2mM,0.942 ± 0.046
same,NP40-soluble protein abundance,[5]; concentration: 4mM,0.927 ± 0.049
same,NP40-soluble protein abundance,[5]; concentration: 6mM,0.875 ± 0.07
same,NP40-soluble protein abundance,[5]; concentration: 8mM,0.893 ± 0.06
same,NP40-soluble protein abundance,[5]; concentration: 10mM,0.917 ± 0.045
same,NP40-soluble protein abundance,[6]; concentration: 1mM,0.973 ± 0.026
same,NP40-soluble protein abundance,[6]; concentration: 2mM,0.957 ± 0.021
same,NP40-soluble protein abundance,[6]; concentration: 4mM,0.951 ± 0.03
same,NP40-soluble protein abundance,[6]; concentration: 6mM,0.951 ± 0.043
same,NP40-soluble protein abundance,[6]; concentration: 8mM,0.944 ± 0.045
same,NP40-soluble protein abundance,[6]; concentration: 10mM,0.94 ± 0.01
same,NP40-soluble protein abundance,A0A067XG54; concentration: 1mM,1.07 ± 0.059
same,NP40-soluble protein abundance,A0A067XG54; concentration: 2mM,1.05 ± 0.043
same,NP40-soluble protein abundance,A0A067XG54; concentration: 4mM,1.02 ± 0.069
same,NP40-soluble protein abundance,A0A067XG54; concentration: 6mM,0.974 ± 0.062
same,NP40-soluble protein abundance,A0A067XG54; concentration: 8mM,1.04 ± 0.037
same,NP40-soluble protein abundance,A0A067XG54; concentration: 10mM,1.015 ± 0.0045

# As a working copy, part of the list above.
compound,measurement,setting,value
Nc1ncnc2c1ncn2[C@@H]1O[C@H](COP(=O)(O)OP(=O)(O)OP(=O)(O)O)[C@@H](O)[C@H]1O [adenosine triphosphate],NP40-soluble protein abundance,A0A024R216|Q9Y3E1; concentration: 1mM,1.03 ± 0.048
same,NP40-soluble protein abundance,A0A024R216|Q9Y3E1; concentration: 2mM,1.06 ± 0.031
same,NP40-soluble protein abundance,A0A024R216|Q9Y3E1; concentration: 4mM,1.01 ± 0.028
same,NP40-soluble protein abundance,A0A024R216|Q9Y3E1; concentration: 6mM,1.109 ± 0.0039
same,NP40-soluble protein abundance,A0A024R216|Q9Y3E1; concentration: 8mM,1 ± 0.038
same,NP40-soluble protein abundance,A0A024R216|Q9Y3E1; concentration: 10mM,1.03 ± 0.053
same,NP40-soluble protein abundance,A0A024R4E5; concentration: 1mM,0.893 ± 0.021
